This test deals with CLDN18.2-Flag (human) (UniProt P56856). Nature of the test: flow cytometry on 293t cells transiently expressing CLDN18.2-Flag, 10 µg/ml antibody. A general note: A flow cytometer gives signals particle by particle.

The chains behind the UniProt entries cited, without tags or fusion partners. Where a name states a change or a piece, a line headed by the entry shows the natural chain unless it says otherwise. A line that says so, or that is headed by a name, gives the form on record, which may keep a tag or linker.
CLDN18.2-Flag (P56856, form named): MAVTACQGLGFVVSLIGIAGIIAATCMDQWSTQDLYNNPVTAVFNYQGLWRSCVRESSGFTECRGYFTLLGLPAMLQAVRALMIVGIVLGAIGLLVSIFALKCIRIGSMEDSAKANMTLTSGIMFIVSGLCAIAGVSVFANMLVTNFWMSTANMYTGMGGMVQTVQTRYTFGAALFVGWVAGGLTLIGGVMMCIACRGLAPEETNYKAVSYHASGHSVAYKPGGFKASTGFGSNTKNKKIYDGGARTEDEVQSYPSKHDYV

Our source for the binding values is US20220235129A1.

No constants are given. Whether binding was seen depends on the method and setting. Some entries that bind do so weakly or less than the wild type.

B1: 18.2-A6 (antibody, human IgG1, kappa, V domains shown)
VH: EVQLVQSGAEVKKPGASVKVSCKASGYTFTSYWLGWVRQAPGQGLEWIGIIYPSDSYTNYNQKFKDRATLTVDKSTSTAYMELSSLRSEDTAVYYCTRFWRGNSFDYWGQGTLVTVSS
VL: DIVMTQSPDSLTIGLGERATINCKSSQSLLNSGNQKNYLTWYQQKPGQPPKLLIYWAAGKESGVPDRFSGSGSGTDFTLTISSLQAEDVAVYYCQNGYSHPFTFGQGTKVEIKR
In the case of B1, the binding result is reported as “binds”.
